Holding throughout (assay): EMSA
On the technique in general: In EMSA bound probe runs differently from free probe, usually more slowly.

Data set [1] concerns the target T1, SIP1NZF (N-terminal zinc finger cluster) (Mus musculus) (UniProt Q9R0G7).
T1 sequence (looked up): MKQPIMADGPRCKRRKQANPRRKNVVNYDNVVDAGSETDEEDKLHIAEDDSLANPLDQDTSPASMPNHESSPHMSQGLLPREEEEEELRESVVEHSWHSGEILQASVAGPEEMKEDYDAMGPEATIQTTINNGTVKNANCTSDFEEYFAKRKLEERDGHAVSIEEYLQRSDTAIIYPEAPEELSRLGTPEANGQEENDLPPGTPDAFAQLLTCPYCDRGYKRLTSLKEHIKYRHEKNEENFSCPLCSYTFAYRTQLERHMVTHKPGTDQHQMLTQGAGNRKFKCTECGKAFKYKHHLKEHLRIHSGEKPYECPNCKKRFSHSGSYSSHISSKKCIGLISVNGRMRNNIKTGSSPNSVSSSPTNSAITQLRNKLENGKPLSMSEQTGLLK
As to conditions: similar to SIP1CZF; p87 says absent; protein in a lysate after overexpression; protein details: N-terminal Myc6, COS1 cell extract; label: 32P; variant of Xbra-WT.

The target in data set [2] is SIP1 CZF2mut full size third His of CZF2 to Ser (Mus musculus) (UniProt Q9R0G7). As to conditions: protein in a lysate after overexpression; protein details: Myc6, COS1 cell extract; label: 32P.
Data set [3] deals with SIP1 CZF3mut full size third His of CZF3 to Ser (Mus musculus) (UniProt Q9R0G7). Conditions: protein in a lysate after overexpression; protein details: Myc6, COS1 cell extract; label: 32P.
For data set [4], the target named is SIP1 NZF3mut full size third His of NZF3 to Ser (Mus musculus) (UniProt Q9R0G7). As to conditions: pairwise mixes of mutants also negative; protein in a lysate after overexpression; protein details: Myc6, COS1 cell extract; label: 32P.
In data set [5] the target is SIP1 NZF4mut full size third His of NZF4 to Ser (Mus musculus) (UniProt Q9R0G7). Conditions: protein in a lysate after overexpression; protein details: Myc6, COS1 cell extract; label: 32P.

At least one result comes from cells or an extract, where the contact may be indirect. For some assays here: A weaker result is weaker than the reference pair of the same experiment. For some assays here: Protein sequences can lack the tags named with them. For some assays here: The exact form of at least one protein or probe is not confirmed. For some assays here: A negative result means that nothing was seen under these conditions.

In the case of “ATCCAGGCCACCTAAAATATAGAATGATAAAGTGACCAGATGTCAGTTCT (double strand) [Xbra-D]”, the binding result in data set [1] was “binds more weakly”.

Turning to “ATCCAGGCCACCTAAAATATAGAATGATAAAGTGACCAGGTGTCAGTTCT (double strand) [Xbra-WT]”, the binding result in data set [2], in data set [3], in data set [4] and in data set [5] was “no binding” throughout.

The values above are taken from patent US20050272090, “Nucleic acid binding of multi-zinc finger transcription factors” (published 2005).
